Results from publication PMC3120833.
These are yes or no findings as the source states them, for the method shown. Binding seen in cells or lysates may run through a third protein. Some entries that bind do so weakly or less than the wild type.

Amino acid sequences for entries named in this document (tags omitted).
UniProt Q93009: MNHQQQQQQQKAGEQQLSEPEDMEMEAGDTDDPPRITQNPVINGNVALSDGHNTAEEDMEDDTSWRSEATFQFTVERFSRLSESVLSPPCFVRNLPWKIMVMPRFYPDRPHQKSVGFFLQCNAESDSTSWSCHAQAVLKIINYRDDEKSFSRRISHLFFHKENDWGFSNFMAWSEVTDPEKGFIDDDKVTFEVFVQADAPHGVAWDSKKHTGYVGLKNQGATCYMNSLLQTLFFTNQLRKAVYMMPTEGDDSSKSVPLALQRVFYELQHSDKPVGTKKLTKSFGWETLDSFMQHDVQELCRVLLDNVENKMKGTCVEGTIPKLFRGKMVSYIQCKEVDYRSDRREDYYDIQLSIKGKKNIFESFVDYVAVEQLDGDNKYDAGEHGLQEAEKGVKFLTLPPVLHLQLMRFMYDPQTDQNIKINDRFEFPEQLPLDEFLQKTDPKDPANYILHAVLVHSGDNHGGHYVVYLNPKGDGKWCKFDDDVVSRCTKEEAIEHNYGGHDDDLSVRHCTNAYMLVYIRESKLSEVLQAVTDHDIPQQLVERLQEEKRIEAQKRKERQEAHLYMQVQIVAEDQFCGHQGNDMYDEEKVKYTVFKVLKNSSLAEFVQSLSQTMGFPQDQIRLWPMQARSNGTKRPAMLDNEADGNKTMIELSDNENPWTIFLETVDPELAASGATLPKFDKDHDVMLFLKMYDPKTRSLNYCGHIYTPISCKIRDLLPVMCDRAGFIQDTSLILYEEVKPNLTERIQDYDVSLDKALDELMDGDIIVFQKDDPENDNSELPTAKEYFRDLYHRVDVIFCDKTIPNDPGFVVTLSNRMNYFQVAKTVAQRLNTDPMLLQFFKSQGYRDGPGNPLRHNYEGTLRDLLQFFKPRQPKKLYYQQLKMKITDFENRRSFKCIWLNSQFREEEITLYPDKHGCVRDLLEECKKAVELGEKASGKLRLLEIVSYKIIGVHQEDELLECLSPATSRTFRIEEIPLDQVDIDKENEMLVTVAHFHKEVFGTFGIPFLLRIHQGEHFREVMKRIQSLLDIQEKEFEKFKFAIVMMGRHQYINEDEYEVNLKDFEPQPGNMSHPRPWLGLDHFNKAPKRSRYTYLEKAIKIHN

Target: T1, ING1, endogenous in HEK293 cells (human (endogenous in HEK293)) (UniProt Q9UK53)
T1 sequence: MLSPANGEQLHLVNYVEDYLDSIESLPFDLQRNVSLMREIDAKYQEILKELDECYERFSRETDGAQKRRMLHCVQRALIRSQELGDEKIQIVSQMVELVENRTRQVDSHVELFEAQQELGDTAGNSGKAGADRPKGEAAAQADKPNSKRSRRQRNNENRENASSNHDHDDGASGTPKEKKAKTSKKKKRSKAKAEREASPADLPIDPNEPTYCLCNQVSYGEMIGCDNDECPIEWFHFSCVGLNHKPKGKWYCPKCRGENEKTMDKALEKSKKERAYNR
Experiment: co-IP; HEK293 cells harvested and immunoprecipitated with anti-ING1 or anti-HAUSP, controls mouse anti-GST and rabbit pre-immune serum; blotted for HAUSP (USP7) or ING1

In the case of “herpesvirus-associated ubiquitin-specific protease (HAUSP), endogenous in HEK293 cells (from UniProt Q93009 1-1102) (enzyme)”, the binding is reported as “binds”.
